Among the data in patent publication US11007270B2, “Polymer-semaxanib moiety conjugates” (Nektar Therapeutics, priority 2010, dated 2021) are IC50 values, retold here.

Sequences of proteins named here, by UniProt entry; tags and fusion partners are left off. Residues count along the entry.
UniProt P35968, 20-1356 limits assumed: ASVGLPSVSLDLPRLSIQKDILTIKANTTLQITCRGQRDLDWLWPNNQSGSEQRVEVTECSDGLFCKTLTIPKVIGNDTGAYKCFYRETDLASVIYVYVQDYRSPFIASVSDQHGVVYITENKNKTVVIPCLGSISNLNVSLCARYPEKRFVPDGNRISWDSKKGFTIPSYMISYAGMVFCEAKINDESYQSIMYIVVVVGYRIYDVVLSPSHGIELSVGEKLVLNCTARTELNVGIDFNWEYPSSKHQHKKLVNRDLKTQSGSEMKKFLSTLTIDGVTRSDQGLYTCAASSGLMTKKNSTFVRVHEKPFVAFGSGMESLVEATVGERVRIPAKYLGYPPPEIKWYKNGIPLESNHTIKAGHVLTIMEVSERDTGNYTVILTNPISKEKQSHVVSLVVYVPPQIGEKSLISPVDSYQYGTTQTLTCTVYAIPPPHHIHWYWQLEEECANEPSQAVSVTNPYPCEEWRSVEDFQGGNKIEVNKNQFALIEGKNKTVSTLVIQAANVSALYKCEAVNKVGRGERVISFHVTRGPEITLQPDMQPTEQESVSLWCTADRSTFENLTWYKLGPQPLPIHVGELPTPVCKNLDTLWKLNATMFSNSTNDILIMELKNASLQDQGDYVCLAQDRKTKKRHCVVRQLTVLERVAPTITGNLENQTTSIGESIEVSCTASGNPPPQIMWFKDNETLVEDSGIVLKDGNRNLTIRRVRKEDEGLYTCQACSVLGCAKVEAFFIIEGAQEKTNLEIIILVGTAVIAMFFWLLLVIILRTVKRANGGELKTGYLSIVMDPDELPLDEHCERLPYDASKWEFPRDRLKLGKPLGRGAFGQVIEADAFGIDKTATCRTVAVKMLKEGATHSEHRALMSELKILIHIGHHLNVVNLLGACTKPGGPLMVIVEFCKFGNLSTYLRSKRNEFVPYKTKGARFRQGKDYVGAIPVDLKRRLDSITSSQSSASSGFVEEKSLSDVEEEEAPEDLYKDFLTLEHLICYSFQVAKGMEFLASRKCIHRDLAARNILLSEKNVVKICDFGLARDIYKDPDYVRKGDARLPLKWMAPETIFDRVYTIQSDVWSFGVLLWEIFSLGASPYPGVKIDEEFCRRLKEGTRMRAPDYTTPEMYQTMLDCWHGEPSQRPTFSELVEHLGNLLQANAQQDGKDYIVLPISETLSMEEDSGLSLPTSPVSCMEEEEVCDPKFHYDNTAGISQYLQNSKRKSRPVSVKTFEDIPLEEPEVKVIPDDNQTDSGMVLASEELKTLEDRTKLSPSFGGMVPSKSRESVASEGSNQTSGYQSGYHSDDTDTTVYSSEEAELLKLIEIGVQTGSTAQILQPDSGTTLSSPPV

Some entries of the source have several records that differ or are many. This is not the full list of results. There may be further records. Values given together differ, and nothing given here explains why; they may come from other doses, times, organisms or constructs than stated.

For this assay, the target named is VEGFR-2 (Homo sapiens, UniProt P35968). The assay is described as follows: VEGFR-2 kinase inhibition, Caliper screening (fluorescent substrate phosphorylation, electrophoretic separation). To be noted: read-out: VEGFR-2 IC50.

For `COCCOCCOCCOCCOCCOCCNC(=O)c1c(C)[nH]c(/C=C2\C(=O)Nc3ccc(F)cc32)c1C` [mPEG6-semaxanib, (Z)-5-((5-fluoro-2-oxoindolin-3-ylidene)methyl)-2,4-dimethyl-1H-pyrrole-3-mPEG6-amide], the IC50 was 230 nM and 520 nM.

As usually defined, the IC50 is the point on the concentration scale where inhibition reaches its midpoint.
